Measurements from “University of Dundee, Small-Polar-MMV Screening Library” (2021), ChEMBL document CHEMBL3988442.

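Whole-cell growth test on Mycobacterium tuberculosis, read after 4 days in a medium based on cholesterol and the lipid DPPC; the read-out is not stated. Compounds at 500 µM. Direction is inferred from retests: higher values go with more growth inhibition. Of about 18,000 compounds tested this way, about 900 (5%) reached 50% or more in at least one test.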

Results are given as percent effect. The controls that fix the scale are not given in the record; negative values are as filed. This is an unselected part of the compounds tested.

Compound,effect
O=C(c1ccc2c(c1)OCCO2)C1CCNCC1,21.07
Cc1ccc(CC(=O)N2CCNCC2)cc1,9.064
CCCC(=O)NC1CCN(C(C)C)CC1,8.531
CCOc1ccc(CC(=O)N(C)[C@H]2COC[C@@H]2O)cc1,-4.743
COc1ccc(CNC(=O)CC2CCNC2)c(OC)c1 (centres undefined),2.86
Cc1cc(C)nc(SCC(=O)Nc2ccn(C)n2)n1,8.675
O=C(CSc1cnn[nH]1)N1CCc2ccccc2C1,39.94
NC(=O)CC(NC1CCCC1)C1CCOCC1 (centres undefined),-2.168
CC(C)(C)OC(=O)N1CCN(CCCN)CC1,4.104
O=C1COCC2(CC2)N1,3.331
NC(=O)NC1CCN(C(=O)Cc2ccc(Br)cc2)CC1,-13.37
CSc1ncc(CN2C[C@@H]3CCC[C@H](C2)C(=O)N3)cn1,5.079
CNCCN1C(=O)c2ccccc2C1=O,6.305
CCNC1=NN=C(c2ccc3c(c2)OCCCO3)CS1,58.96
N#Cc1ccc(S(=O)(=O)NCCN)cc1C(F)(F)F,65.17
CC(C)c1nnc(CN2C[C@@H]3CCC[C@H](C2)C(=O)N3)o1,-5.07
Cn1c(CCN)nc2cc(F)ccc21,11.07
CCSCCOc1ccc(CO)nc1,35.27
COC(=O)[C@@H]1CNC[C@H]1C,-15.52
CCc1ccc(CN2CCN(C(=O)N(C)C)CC2)o1,51.82
CC[C@H]1COCCN1C(=O)CCn1ccc(=O)[nH]c1=O,-5.467
OC1(c2cccc(OC(F)(F)F)c2)CCNCC1,8.244
CC(C)NC(=O)N(C)Cc1cccc(C(N)=O)c1,1.22
COCc1cccc(S(=O)(=O)N2CCOCC2)c1,-8.923
c1cc(CC2CCNC2)ccn1 (centres undefined),-23.5
COc1cc(NC(=O)c2cncc(Br)c2)ncn1,-16.1
CC(CO)NCCN1CCc2ccccc2C1 (centres undefined),15.84
CCN(CC)CCCC1CCN(S(N)(=O)=O)CC1,7.336
Cn1cccc(NC(=O)c2ccc(Br)cc2F)c1=O,4.288
CC(C)(C)OC(=O)N[C@@H]1CCO[C@H]1C1CCNCC1,-5.28
CC(C)(C)C(O)CN (centres undefined),8.09
CN(CC(N)=O)C(=O)c1ccc(OC2CCC2)cc1Cl,-11.54
Cc1cc(-n2cccc2)ccc1C(=O)N(C)C,19.74
Cc1nccc(C(=O)NCC(C)(C)N2CCOCC2)n1,1.059
COCC(C)NC(=O)NCc1ccc(F)cc1 (centres undefined),12.35
COc1ccc(Cl)cc1NC(=O)Cn1ccnn1,-5.885
Cc1cnccc1NC(=O)NCC(=O)N1CCCC1,-7.453
COc1cccc(CCN)n1,53.42
O=C(c1cc(C2CC2)on1)N1CCC2(CCNCC2)C1,2.477
CCN(CC)C(=O)CCn1ccccc1=O,-2.047
COc1ccccc1NCC(=O)NCC(C)(O)C(C)C (centres undefined),4.495
O=C(CCn1cccn1)N1CCc2sccc2C1,48.09
Cc1noc(OCC(=O)Nc2ccccc2)n1,7.636
CS(=O)(=O)CCNc1ccnc2ccc(Br)cc12,27.62
COC(=O)CNC(=O)c1ccc(C)c(-n2cccc2)c1,39.11
O=C(Nc1ncccc1O)c1cnns1,-5.099
O=S(=O)(c1ccc2c(c1)OCCO2)N1CCCNCC1,17.38
O=C(NCc1ccc2c(c1)OCO2)N1CCCCC1,72.65
CS(=O)(=O)c1ccccc1C(=O)Nc1ccccc1,-3.848
CN(C)S(=O)(=O)c1cc2c(cc1Cl)OCCO2,42.1
COc1c(F)cccc1CN1C[C@H](O)[C@@H](N(C)C)C1,7.716
CC(C)C(O)CCNS(=O)(=O)c1ccccc1 (centres undefined),8.189
CC(O)CNC(=O)C1CCNCC1 (centres undefined),-11.43
CC(CN)N(C)C(=O)Cc1cccc2ccccc12 (centres undefined),15.01
CC(C)(C)OC(=O)N[C@H]1CS(=O)(=O)[C@@H]2CNC[C@H]12,5.562
CC1(C)Cc2cccc(OCCN)c2O1,24.98
CC1(C)CN(c2ccnc3ccccc23)CC[S+]1[O-] (centres undefined),5.348
CN(C)[C@H]1CN(C(=O)Nc2ccccc2F)C[C@@H]1O,1.804
COCC(C)(NC(=O)c1ccc(Br)cc1Cl)C(N)=O (centres undefined),19.13
CNC(=O)Cc1noc(Cc2ccc(O)cc2Cl)n1,10.17
COc1ccc(CNC(=O)CCC2CCCO2)cn1 (centres undefined),30.51
NS(=O)(=O)C1CCN(C(=O)NCc2ccccc2)CC1,4.79
Cc1nnc(CNC(=O)c2ccc(NC3CC3)nc2)o1,-1.031
CC(C)CN1CCOC(CNC(=O)c2cccs2)C1 (centres undefined),26.06
CC1NCCn2c(Cl)ccc21 (centres undefined),-34.31
N[C@H]1c2ccccc2C[C@H]1F,-0.264
CC(=O)Cn1cc(S(=O)(=O)N(C)C)ccc1=O,2.892
CCn1ccnc1C(C)N (centres undefined),0.6298
CC(C)(NCCCO)c1nccs1,5.802
CCC1(CO)CCCN1 (centres undefined),-11.16
CCN1CCC(O)CC1,11.1
CCc1noc(CNC)n1,3.14
O=C(NCCCN1CCCC1)Nc1ccccc1,4.606
CCOCCC1(CN)CCC1,-0.6982
O=S(=O)(CCN1CCCC1)c1ccccc1,21.65
C[C@@H]1CN(C(=O)c2cccc3cc[nH]c23)CCN1,24.65

The first 5 entries again:

{"compound": "O=C(c1ccc2c(c1)OCCO2)C1CCNCC1", "effect": 21.07}
{"compound": "Cc1ccc(CC(=O)N2CCNCC2)cc1", "effect": 9.064}
{"compound": "CCCC(=O)NC1CCN(C(C)C)CC1", "effect": 8.531}
{"compound": "CCOc1ccc(CC(=O)N(C)[C@H]2COC[C@@H]2O)cc1", "effect": -4.743}
{"compound": "COc1ccc(CNC(=O)CC2CCNC2)c(OC)c1", "stereo": "centres undefined", "effect": 2.86}